Data on 40 sequences can be found in paper PMC7862700.

The list shows a part of the results. The exact form of the protein is not confirmed.

In the assay the target is T1, ETS1 (UniProt P14921).
T1 sequence: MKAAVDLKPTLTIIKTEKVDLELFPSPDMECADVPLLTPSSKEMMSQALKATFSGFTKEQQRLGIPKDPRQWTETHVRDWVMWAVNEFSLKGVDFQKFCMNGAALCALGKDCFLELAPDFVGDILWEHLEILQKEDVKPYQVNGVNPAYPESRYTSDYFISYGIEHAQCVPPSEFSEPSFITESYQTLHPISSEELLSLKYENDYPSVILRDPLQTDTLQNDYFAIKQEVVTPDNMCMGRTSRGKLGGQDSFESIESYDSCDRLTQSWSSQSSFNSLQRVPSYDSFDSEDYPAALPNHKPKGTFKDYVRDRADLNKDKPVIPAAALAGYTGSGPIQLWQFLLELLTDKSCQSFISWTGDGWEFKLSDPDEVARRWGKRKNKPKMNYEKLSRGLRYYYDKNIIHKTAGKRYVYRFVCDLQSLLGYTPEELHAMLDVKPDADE
The assay is described as follows: DAPPL (digital affinity profiling via proximity ligation, sequencing). Particulars: 10 mM Tris-HCl pH 7.5, 50 mM NaCl, 1 mM DTT, 4% glycerol, room temperature, 30 min; GST-TFs on glutathione beads, 16-mer random dsDNA library, 0.1% …; high values mean tight binding; double strand, one strand shown; scale: fold enrichment (6-mer frequency, TF over GST control).
Sequence TAATAT yielded a binding signal of 1.28.
In turn, TCTAAC registered a binding signal of 1.21.
The result for CACTGC reads 1.39; that for TTTTAT, 1.37; that for TCGTCT, 1.29.
The same measure for ACCTCC: 1.34.
The result for AATCAG reads 1.17; that for ACGACC, 1.25.
In turn, ATAATA had a binding signal of 1.26.
ACTGTA: the binding signal came out at 0.983.
For TCAACT, the binding signal was determined as 1.27.
The result for GGCTAA reads 0.953; that for CTGTCT, 1.42.
The result for CATACA reads 1.08.
The same measure for CTACTG: 1.36; for GTTGCT: 1.31.
TTTGAT: the binding signal came to 1.29.
The result for CGAACA reads 1.16; that for ATGACC, 1.53; that for TCAAGG, 1.05.
The same measure for CGGTTA: 1.01; for AAAGGG: 1.2; for CCTTCA: 1.5.
The result for GGTGTT reads 0.947; that for ACTTGT, 1.34.
Sequence TTTTTC came in with a binding signal of 1.18.
The same measure for ATTTTG: 1.3; for ATTTAG: 1.21.
Turning to TGGGAA, the binding signal is 1.
The result for ATACAT reads 1.27.
The same measure for ACGAAA: 1.17; for AACACT: 1.29.
In turn, ACTTCG yielded a binding signal of 1.3.
The same measure for CAATAG: 1.04; for AAGGCT: 1.03; for CATATC: 1.33.
The same measure for GGAAAT: 2.53; for ATCGCT: 1.08.
As to CTACCT, the binding signal was found to be 1.45.
The result for TCTTTT reads 1.42.
